Data set [1] in a line: Fmoc solid-phase peptide synthesis; Sieber resin; PyBOP (comparative SPPS). To be noted: whole synthesis, scale 10 mmol.
Where [2] appears, read: whole synthesis, scale of the general procedure 10 mmol.

The values below come from patent US20140128572 (published 2014).

Square brackets hold non-standard residues; d marks the D form. * marks the point of attachment. Asn(Trt) = N[C@@H](CC(=O)NC(c1ccccc1)(c1ccccc1)c1ccccc1)C(=O)O; Boc = CC(C)(C)OC(=O)*; tBu = CC(C)(C)*

As to “Boc-Ser(Bzl)-Phe-Pro-Ile-Leu-Pro-Pro-Glu(OBzl)-Glu(OBzl)-Tyr(Bzl)-Leu(OBzl)”, in “peptide synthesis” (purification step), the difficulty met result was “a large part of the solid was still in the form of a sticky gum-like solid” and the outcome was “it was not possible to collect the obtained precipitate”.
In the data set “peptide synthesis” (whole synthesis), H-LW(Boc)V[Asn(Trt)]S(tBu)-NH2 gave a crude mass of 2.6 g. Further, in “peptide synthesis” (setting [2]), the “crude purity (method not given)” value amounted to 49%, the crude yield entry is “yield=31%” and the difficulty met entry is listed as “a significant amount of these peptides precipitated during the process of extraction”. Also, the crude yield entry in data set [1] (gross yield) is reported as “gross yield=33%”. In data set [1], the crude mass stood at 605 mg and the “crude purity (method not given)” value is on record as 57%.
